What all share (assay): protein microarray (ProtoArray v5.0), streptavidin-Alexa Fluor 647
Details in all cases: 3'-biotin; 20 mM Tris (pH 7.5), 5 mM MgCl2, 100 mM KCl, 0.1% Tween-20, A/T-rich and random oligonucleotide blockers; temperature not stated; high values mean tight binding

Test [1] deals with DPP3 (human).
In test [2] the test system is DSCR1L1 (human).
For test [3], the system named is DSCR4 (human).
The subject of test [4] is DSN1 (human).
The test system of test [5] is DSTN (human).
The test system of test [6] is DTNB (human).
In test [7] the test system is DTNBP1 (human).
Test [8] has as its system DTYMK (human).
Test [9] concerns DULLARD (human).
Test [10] addresses T1, DUS1L (UniProt Q6P1R4).
T1 sequence: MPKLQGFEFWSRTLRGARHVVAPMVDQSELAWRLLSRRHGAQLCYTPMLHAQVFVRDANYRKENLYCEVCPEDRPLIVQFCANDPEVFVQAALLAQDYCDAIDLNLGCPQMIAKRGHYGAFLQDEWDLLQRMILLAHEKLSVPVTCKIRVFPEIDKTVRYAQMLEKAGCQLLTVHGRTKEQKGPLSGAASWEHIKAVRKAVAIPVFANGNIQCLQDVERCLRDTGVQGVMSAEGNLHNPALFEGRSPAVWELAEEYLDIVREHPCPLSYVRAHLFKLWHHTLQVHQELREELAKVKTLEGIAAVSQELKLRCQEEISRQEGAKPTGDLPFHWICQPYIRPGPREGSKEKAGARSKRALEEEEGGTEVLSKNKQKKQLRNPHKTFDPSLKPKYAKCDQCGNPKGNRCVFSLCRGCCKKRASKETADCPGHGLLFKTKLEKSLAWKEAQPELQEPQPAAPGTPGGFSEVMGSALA

The other results are listed elsewhere or left out. For some of these results: Construct or isoform of the protein are uncertain.

For “GGGAGGCTGAGGCAGG [G4-1 biotinylated (PQS2)]”, the binding signal in [1] was -0.36 z-score; in [2], -0.252 z-score; in [3], -0.339 z-score; in test [4] it was -0.32 z-score; in [5] it was -0.319 z-score; in [6] it was -0.35 z-score. The binding signal in test [7] is -0.342 z-score; in test [8], -0.336 z-score; in test [9], -0.323 z-score; in [10], 3.49 z-score.

Source of the values: paper PMC5996148.
